# In the supplement of paper PMC10849652:
# Protein sequences, listed by entry. Tags and fused reporters are not part of them. Lines headed by an entry give the natural chain unless they say otherwise; changes in a name come on top.
# UniProt Q9Y2G9: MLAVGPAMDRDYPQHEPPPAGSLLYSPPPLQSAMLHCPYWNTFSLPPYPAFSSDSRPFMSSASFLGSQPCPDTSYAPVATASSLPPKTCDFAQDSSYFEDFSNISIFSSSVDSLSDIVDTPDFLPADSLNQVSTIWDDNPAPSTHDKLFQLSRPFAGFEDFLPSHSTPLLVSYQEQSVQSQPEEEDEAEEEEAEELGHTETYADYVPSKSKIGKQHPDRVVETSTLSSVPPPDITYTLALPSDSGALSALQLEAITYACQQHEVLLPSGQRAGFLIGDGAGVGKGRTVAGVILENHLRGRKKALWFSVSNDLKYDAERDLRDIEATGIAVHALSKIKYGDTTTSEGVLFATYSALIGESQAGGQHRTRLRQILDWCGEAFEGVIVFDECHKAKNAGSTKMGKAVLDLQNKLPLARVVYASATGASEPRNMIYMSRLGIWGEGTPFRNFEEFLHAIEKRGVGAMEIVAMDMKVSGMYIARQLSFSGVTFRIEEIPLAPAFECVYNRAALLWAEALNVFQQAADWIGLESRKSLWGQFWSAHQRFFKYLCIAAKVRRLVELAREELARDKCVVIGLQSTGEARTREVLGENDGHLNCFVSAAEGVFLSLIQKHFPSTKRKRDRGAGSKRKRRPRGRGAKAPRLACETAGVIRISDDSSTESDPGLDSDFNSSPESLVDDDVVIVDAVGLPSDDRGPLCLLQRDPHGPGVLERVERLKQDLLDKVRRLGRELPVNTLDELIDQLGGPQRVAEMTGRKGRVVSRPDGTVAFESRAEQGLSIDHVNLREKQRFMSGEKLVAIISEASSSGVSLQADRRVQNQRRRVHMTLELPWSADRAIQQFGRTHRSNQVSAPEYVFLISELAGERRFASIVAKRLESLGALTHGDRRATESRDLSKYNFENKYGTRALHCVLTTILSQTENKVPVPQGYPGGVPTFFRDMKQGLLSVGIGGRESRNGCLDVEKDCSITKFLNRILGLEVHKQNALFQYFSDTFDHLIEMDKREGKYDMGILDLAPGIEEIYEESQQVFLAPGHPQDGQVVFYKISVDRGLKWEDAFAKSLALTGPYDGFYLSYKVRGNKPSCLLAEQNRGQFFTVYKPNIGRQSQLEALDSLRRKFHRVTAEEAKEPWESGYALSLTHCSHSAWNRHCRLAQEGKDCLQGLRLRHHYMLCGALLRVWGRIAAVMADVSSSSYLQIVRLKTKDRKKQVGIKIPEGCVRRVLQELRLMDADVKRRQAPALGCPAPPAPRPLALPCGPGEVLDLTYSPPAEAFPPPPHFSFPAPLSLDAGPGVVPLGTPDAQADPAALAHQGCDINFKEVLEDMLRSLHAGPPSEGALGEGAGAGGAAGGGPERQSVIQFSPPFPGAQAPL
# UniProt Q96IW7: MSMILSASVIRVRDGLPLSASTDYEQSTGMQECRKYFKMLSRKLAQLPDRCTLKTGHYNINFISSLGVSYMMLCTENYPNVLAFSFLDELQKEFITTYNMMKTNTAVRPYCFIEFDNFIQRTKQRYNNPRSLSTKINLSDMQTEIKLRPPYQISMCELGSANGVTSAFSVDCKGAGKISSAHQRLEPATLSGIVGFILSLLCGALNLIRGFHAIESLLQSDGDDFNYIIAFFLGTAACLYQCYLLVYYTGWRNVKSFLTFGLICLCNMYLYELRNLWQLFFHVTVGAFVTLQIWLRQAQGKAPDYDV
# UniProt Q9HC62: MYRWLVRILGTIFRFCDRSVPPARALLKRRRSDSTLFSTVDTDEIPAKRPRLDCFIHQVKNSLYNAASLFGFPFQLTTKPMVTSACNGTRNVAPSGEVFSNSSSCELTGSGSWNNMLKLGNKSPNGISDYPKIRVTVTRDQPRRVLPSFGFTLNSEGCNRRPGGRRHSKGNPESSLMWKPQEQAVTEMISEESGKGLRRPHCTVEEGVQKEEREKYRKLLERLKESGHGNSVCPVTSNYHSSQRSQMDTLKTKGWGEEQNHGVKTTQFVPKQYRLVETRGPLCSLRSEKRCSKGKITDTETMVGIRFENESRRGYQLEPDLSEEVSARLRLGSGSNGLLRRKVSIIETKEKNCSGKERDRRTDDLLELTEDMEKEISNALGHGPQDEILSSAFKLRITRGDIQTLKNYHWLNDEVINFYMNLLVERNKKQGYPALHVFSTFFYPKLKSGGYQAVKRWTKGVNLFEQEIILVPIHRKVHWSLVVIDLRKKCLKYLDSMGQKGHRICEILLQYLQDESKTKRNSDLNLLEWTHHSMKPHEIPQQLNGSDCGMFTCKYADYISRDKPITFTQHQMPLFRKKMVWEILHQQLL
# UniProt O75556: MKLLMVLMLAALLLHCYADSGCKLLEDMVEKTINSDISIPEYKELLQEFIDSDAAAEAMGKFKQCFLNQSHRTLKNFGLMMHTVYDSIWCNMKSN
# UniProt O75845: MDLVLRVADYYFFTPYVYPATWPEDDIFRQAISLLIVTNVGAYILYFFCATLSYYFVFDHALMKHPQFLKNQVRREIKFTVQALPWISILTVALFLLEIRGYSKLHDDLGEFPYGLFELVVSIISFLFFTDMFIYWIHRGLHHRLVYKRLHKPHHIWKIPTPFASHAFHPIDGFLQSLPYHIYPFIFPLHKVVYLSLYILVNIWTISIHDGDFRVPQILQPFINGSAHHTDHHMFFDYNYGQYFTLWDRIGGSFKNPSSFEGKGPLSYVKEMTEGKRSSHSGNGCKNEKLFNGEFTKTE
# UniProt Q9NX18: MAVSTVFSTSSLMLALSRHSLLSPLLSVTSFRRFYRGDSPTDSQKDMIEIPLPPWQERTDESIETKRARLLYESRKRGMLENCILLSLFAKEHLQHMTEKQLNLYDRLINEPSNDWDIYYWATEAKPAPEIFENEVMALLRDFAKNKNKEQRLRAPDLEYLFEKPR
# UniProt Q9C0D9, whole entry, looked up: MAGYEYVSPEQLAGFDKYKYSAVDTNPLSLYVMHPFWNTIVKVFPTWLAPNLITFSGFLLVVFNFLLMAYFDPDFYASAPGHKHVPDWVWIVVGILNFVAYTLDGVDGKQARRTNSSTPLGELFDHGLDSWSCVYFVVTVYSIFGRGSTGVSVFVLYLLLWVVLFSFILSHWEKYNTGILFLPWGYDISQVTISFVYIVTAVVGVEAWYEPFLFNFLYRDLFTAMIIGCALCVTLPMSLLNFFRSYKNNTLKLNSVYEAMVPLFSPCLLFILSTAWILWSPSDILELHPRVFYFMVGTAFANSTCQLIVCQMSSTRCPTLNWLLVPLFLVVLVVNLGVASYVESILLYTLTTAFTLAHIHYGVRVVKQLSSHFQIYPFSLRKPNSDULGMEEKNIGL
# UniProt Q8WWX9, whole entry, looked up: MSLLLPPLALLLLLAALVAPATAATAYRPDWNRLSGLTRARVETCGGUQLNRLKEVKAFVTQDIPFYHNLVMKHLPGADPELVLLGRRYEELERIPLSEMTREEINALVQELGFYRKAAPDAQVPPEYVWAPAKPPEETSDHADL
# UniProt Q9H4B6: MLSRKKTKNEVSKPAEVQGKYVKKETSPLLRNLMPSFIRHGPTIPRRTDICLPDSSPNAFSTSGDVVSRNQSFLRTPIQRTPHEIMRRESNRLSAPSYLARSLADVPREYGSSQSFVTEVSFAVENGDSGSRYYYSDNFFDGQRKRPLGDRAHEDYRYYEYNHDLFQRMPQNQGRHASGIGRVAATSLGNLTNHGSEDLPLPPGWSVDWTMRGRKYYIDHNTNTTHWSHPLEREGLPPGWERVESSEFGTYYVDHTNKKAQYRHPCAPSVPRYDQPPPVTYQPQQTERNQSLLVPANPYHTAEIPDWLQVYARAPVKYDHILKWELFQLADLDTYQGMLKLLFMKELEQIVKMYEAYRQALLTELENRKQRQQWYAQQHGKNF
# UniProt Q14108: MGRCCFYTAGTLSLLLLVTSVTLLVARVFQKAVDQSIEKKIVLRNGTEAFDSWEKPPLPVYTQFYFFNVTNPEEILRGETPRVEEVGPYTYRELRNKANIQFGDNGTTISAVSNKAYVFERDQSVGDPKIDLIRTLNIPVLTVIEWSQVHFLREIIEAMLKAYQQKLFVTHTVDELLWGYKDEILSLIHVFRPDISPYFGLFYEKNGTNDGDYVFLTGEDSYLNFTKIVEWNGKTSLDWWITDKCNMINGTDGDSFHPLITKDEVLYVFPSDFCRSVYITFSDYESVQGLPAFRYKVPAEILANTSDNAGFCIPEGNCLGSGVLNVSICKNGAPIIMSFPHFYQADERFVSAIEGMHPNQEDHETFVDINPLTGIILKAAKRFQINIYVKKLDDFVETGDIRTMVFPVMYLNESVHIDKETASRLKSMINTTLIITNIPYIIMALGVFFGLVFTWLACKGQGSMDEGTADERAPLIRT
# UniProt Q9Y6D0, whole entry, looked up: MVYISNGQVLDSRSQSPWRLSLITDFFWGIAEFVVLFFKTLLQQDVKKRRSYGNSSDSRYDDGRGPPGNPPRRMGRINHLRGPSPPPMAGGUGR
# UniProt Q99470: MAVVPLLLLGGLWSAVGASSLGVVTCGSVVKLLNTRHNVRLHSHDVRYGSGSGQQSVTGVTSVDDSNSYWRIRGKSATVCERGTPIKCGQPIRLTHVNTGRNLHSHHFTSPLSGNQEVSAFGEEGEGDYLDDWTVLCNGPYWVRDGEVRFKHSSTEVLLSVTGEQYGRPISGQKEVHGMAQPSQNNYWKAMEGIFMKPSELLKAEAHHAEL
# UniProt O75446: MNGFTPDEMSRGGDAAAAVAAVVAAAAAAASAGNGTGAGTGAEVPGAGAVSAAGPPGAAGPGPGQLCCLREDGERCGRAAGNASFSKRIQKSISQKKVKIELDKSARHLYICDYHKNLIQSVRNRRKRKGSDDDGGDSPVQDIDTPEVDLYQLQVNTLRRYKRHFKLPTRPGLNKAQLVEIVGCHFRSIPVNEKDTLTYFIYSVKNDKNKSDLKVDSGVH
# UniProt Q96LT4: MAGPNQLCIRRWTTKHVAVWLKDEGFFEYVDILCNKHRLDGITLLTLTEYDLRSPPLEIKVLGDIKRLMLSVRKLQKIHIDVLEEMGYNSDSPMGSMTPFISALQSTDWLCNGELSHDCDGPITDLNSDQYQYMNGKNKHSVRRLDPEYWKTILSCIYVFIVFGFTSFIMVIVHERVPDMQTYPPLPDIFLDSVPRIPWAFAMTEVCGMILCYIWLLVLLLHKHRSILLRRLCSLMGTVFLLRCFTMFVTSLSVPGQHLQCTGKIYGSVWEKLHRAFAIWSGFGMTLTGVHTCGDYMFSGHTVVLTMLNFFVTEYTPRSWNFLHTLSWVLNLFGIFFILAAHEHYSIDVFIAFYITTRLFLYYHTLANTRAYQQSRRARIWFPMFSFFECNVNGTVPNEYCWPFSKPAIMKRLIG
# UniProt Q9NZV5, whole entry, looked up: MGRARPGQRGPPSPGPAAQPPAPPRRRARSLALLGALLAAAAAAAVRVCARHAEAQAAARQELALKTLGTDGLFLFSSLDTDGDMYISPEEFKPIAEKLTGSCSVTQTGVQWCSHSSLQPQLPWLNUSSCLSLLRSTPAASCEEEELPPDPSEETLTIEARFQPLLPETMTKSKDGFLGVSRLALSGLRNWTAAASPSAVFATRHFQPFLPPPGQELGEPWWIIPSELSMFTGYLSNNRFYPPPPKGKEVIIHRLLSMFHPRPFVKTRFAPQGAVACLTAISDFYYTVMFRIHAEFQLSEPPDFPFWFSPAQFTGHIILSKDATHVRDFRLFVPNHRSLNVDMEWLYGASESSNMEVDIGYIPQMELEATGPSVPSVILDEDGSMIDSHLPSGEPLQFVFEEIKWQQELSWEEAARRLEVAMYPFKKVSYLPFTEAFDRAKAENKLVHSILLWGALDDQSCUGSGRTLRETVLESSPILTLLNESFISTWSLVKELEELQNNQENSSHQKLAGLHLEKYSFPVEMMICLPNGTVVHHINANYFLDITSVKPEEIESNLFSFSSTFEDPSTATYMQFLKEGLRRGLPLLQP
# UniProt A6NKF1: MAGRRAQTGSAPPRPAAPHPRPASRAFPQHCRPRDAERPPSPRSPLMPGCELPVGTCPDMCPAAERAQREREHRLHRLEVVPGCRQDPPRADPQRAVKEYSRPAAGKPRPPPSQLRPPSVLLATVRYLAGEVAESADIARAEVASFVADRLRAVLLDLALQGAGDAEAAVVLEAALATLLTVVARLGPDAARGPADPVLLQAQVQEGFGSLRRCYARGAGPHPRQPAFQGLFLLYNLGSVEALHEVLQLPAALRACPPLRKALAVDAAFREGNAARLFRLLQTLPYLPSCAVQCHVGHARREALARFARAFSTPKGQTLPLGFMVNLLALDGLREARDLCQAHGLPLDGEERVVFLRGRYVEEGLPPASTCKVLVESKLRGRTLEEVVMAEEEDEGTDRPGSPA
# UniProt P57086: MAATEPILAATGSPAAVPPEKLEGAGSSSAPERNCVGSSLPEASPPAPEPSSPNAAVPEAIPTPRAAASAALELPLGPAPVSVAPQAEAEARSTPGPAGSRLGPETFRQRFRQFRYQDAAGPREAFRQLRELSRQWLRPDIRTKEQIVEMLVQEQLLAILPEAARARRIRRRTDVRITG
# UniProt O95968: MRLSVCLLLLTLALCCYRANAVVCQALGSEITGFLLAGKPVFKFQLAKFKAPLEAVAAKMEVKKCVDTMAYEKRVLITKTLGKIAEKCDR
# Some of the results follow.
# What was measured:
# Test in all cases: log2 fold change, soluble protein after heating vs DMSO (PISA); higher = thermal stabilisation; K562 lysate, 10 uM; active = over 0.2 and 3.5 SD of the protein, either way, in both replicates (recomputed)
# alvocidib = compound: CN1CC[C@H](c2c(O)cc(O)c3c(=O)cc(-c4ccccc4Cl)oc23)[C@H](O)C1 [alvocidib]
# Procedure, shortened: (§1)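 Log-two fold change in thermal stability relative to solvent controls is reported from duplicates. For each sample, crude K562 extract from dounce-homogenised pellets in PBS pH 7.4 with 1 mM MgCl2, at 1 mg/mL protein, was treated with 10 μM compound for 30 min. Aliquots heated for 3 min across 48°C-58°C were pooled, brought to 0.5% NP-40 at 4°C and cleared at 21,000xg for 90 min. The supernatant was quantified by TMTpro 16plex LC-MS/MS with channel sums equalised.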
# defactinib = compound: CNC(=O)c1ccc(Nc2ncc(C(F)(F)F)c(NCc3nccnc3N(C)S(C)(=O)=O)n2)cc1 [defactinib]
# Procedure, shortened: as §1
# [1] = compound: C[C@H](C1=CC=C(C=C1)C(=O)NC2=C3C=CNC3=NC=C2)N
# Procedure, shortened: as §1
# gandotinib = compound: Cc1cc(Nc2cc(CN3CCOCC3)c3nc(C)c(Cc4ccc(Cl)cc4F)n3n2)n[nH]1 [gandotinib]
# Procedure, shortened: as §1
# [2] = compound: Cc1cccc(CC(=O)N2CCc3c2ccc(-c2cn(C)c4ncnc(N)c24)c3F)n1
# Procedure, shortened: as §1
# Tubastatin A = compound: CN1CCc2c(c3ccccc3n2Cc2ccc(C(=O)NO)cc2)C1 [Tubastatin A]
# Procedure, shortened: as §1
# alisertib = compound: COc1cc(Nc2ncc3c(n2)-c2ccc(Cl)cc2C(c2c(F)cccc2OC)=NC3)ccc1C(=O)O [alisertib]
# Procedure, shortened: as §1
# [3] = compound: COc1cc2nc(-c3cc(F)ccc3O)nc(N[C@@H]3CNC[C@H]3C(C)(C)O)c2cc1OC
# Procedure, shortened: as §1
# gefitinib = compound: COc1cc2ncnc(Nc3ccc(F)c(Cl)c3)c2cc1OCCCN1CCOCC1 [gefitinib]
# Procedure, shortened: as §1
# lapatinib = compound: CS(=O)(=O)CCNCc1ccc(-c2ccc3ncnc(Nc4ccc(OCc5cccc(F)c5)c(Cl)c4)c3c2)o1 [lapatinib]
# Procedure, shortened: as §1
# pictilisib = compound: CS(=O)(=O)N1CCN(Cc2cc3nc(-c4cccc5[nH]ncc45)nc(N4CCOCC4)c3s2)CC1 [pictilisib]
# Procedure, shortened: as §1
# crizotinib = compound: C[C@@H](Oc1cc(-c2cnn(C3CCNCC3)c2)cnc1N)c1c(Cl)ccc(F)c1Cl [crizotinib]
# Procedure, shortened: as §1
# doramapimod = compound: Cc1ccc(-n2nc(C(C)(C)C)cc2NC(=O)Nc2ccc(OCCN3CCOCC3)c3ccccc23)cc1 [doramapimod]
# Procedure, shortened: as §1
# bafetinib = compound: Cc1ccc(NC(=O)c2ccc(CN3CC[C@H](N(C)C)C3)c(C(F)(F)F)c2)cc1Nc1nccc(-c2cncnc2)n1 [bafetinib]
# Procedure, shortened: as §1
# encorafenib = compound: COC(=O)N[C@@H](C)CNc1nccc(-c2cn(C(C)C)nc2-c2cc(Cl)cc(NS(C)(=O)=O)c2F)n1 [encorafenib]
# Procedure, shortened: as §1
# [4] = compound: COC(=O)[C@H](CCSC)NC(=O)C1=C(C=C(C=C1)NC[C@H](CS)N)C2=CC=CC=C2
# Procedure, shortened: as §1
# tozasertib = compound: Cc1cc(Nc2cc(N3CCN(C)CC3)nc(Sc3ccc(NC(=O)C4CC4)cc3)n2)n[nH]1 [tozasertib]
# Procedure, shortened: as §1
# [5] = compound: CNC(=O)C1=CC=CC=C1NC2=NC(=NC=C2Cl)NC3=C(C=C(C=C3)N4CCOCC4)OC
# Procedure, shortened: as §1
# [6] = compound: CNc1nc(-c2ccc3c(N)n[nH]c3c2)cc(N2C[C@@H](C(=O)NC3CCCCC3)CC[C@H]2C)n1
# Procedure, shortened: as §1
# duvelisib = compound: C[C@H](Nc1ncnc2nc[nH]c12)c1cc2cccc(Cl)c2c(=O)n1-c1ccccc1 [duvelisib]
# Procedure, shortened: as §1
target,measurement,setting,value
SBNO2 (UniProt Q9Y2G9),log2 fold change,alvocidib,inactive: 0.047
same,log2 fold change,defactinib,inactive: -0.078
same,log2 fold change,[1],inactive: 0.229
same,log2 fold change,gandotinib,inactive: -0.034
same,log2 fold change,[2],inactive: -0.261
SEC22A (UniProt Q96IW7),log2 fold change,Tubastatin A,inactive: -0.044
same,log2 fold change,alisertib,inactive: -0.424
same,log2 fold change,[3],inactive: -0.123
same,log2 fold change,gefitinib,inactive: 0
same,log2 fold change,lapatinib,inactive: -0.087
same,log2 fold change,pictilisib,inactive: -0.046
same,log2 fold change,crizotinib,inactive: -0.065
same,log2 fold change,doramapimod,inactive: -0.059
same,log2 fold change,bafetinib,inactive: -0.043
SENP2 (UniProt Q9HC62),log2 fold change,alisertib,inactive: -0.075
same,log2 fold change,gefitinib,inactive: -0.011
SCGB2A1 (UniProt O75556),log2 fold change,alvocidib,inactive: -0.134
same,log2 fold change,[3],inactive: -0.188
same,log2 fold change,lapatinib,inactive: -0.02
same,log2 fold change,[1],inactive: 0.333
same,log2 fold change,gandotinib,inactive: 0.022
same,log2 fold change,[2],inactive: 0.606
SC5D (UniProt O75845),log2 fold change,alvocidib,inactive: -0.036
same,log2 fold change,encorafenib,inactive: 0.009
same,log2 fold change,[4],inactive: -0.108
same,log2 fold change,[3],inactive: -0.028
same,log2 fold change,lapatinib,inactive: -0.02
same,log2 fold change,crizotinib,inactive: 0.009
same,log2 fold change,[1],inactive: -0.019
same,log2 fold change,gandotinib,inactive: 0.018
same,log2 fold change,tozasertib,inactive: -0.002
same,log2 fold change,doramapimod,inactive: -0.033
same,log2 fold change,[2],inactive: 0.045
"SDHB, A0A087WXX8",log2 fold change,alvocidib,inactive: -0.076
same,log2 fold change,defactinib,inactive: 0.005
same,log2 fold change,alisertib,inactive: 0.24
same,log2 fold change,gefitinib,inactive: 0.15
same,log2 fold change,[1],inactive: -0.1
same,log2 fold change,gandotinib,inactive: 0.088
same,log2 fold change,[2],inactive: 0.251
SDHAF2 (UniProt Q9NX18),log2 fold change,Tubastatin A,inactive: 0.1
same,log2 fold change,[5],inactive: -0.009
same,log2 fold change,defactinib,inactive: -0.036
same,log2 fold change,[6],inactive: 0.099
same,log2 fold change,encorafenib,inactive: 0.006
same,log2 fold change,[4],inactive: -0.025
same,log2 fold change,alisertib,inactive: -0.052
same,log2 fold change,[3],inactive: -0.015
same,log2 fold change,gefitinib,inactive: 0.177
same,log2 fold change,lapatinib,inactive: -0.003
same,log2 fold change,pictilisib,inactive: -0.043
same,log2 fold change,crizotinib,inactive: -0.048
same,log2 fold change,duvelisib,inactive: 0.003
same,log2 fold change,tozasertib,inactive: 0.006
same,log2 fold change,doramapimod,inactive: -0.033
same,log2 fold change,bafetinib,inactive: 0.082
SELENOI (UniProt Q9C0D9),log2 fold change,Tubastatin A,inactive: -0.087
same,log2 fold change,[5],inactive: 0.335
same,log2 fold change,[6],inactive: -0.019
same,log2 fold change,encorafenib,inactive: 0.024
same,log2 fold change,[4],inactive: 0
same,log2 fold change,[3],inactive: -0.078
same,log2 fold change,lapatinib,inactive: -0.077
same,log2 fold change,pictilisib,inactive: 0.114
same,log2 fold change,crizotinib,inactive: -0.055
same,log2 fold change,duvelisib,inactive: -0.126
same,log2 fold change,tozasertib,inactive: -0.004
same,log2 fold change,doramapimod,inactive: -0.149
same,log2 fold change,bafetinib,inactive: 0.05
SELENOM (UniProt Q8WWX9),log2 fold change,Tubastatin A,inactive: 0.138
same,log2 fold change,[3],inactive: -0.258
same,log2 fold change,lapatinib,inactive: 0.081
same,log2 fold change,crizotinib,inactive: 0.079
same,log2 fold change,doramapimod,inactive: -0.032
SAV1 (UniProt Q9H4B6),log2 fold change,alisertib,inactive: -0.067
same,log2 fold change,gefitinib,inactive: -0.013
SCARB2 isoform 2 (UniProt Q14108),log2 fold change,alvocidib,inactive: 0.029
same,log2 fold change,[6],inactive: 0.36
same,log2 fold change,alisertib,inactive: -0.002
same,log2 fold change,[3],inactive: 0.076
same,log2 fold change,gefitinib,inactive: 0.032
same,log2 fold change,lapatinib,inactive: 0
same,log2 fold change,pictilisib,inactive: -0.11
same,log2 fold change,[1],inactive: -0.244
same,log2 fold change,duvelisib,inactive: -0.172
same,log2 fold change,gandotinib,inactive: 0.049
same,log2 fold change,bafetinib,inactive: -0.018
same,log2 fold change,[2],inactive: -0.073
SELENOK (UniProt Q9Y6D0),log2 fold change,alvocidib,inactive: -0.169
same,log2 fold change,defactinib,inactive: 0.123
same,log2 fold change,[6],inactive: -0.001
same,log2 fold change,alisertib,inactive: -0.018
same,log2 fold change,[3],inactive: -0.025
same,log2 fold change,gefitinib,inactive: 0.006
same,log2 fold change,lapatinib,inactive: -0.065
same,log2 fold change,pictilisib,inactive: -0.048
same,log2 fold change,[1],active: -0.543
same,log2 fold change,duvelisib,inactive: 0.082
same,log2 fold change,gandotinib,active: 0.52
same,log2 fold change,bafetinib,inactive: -0.027
same,log2 fold change,[2],active: 0.542
SDF2 (UniProt Q99470),log2 fold change,alisertib,inactive: 0.133
same,log2 fold change,[3],inactive: 0.211
same,log2 fold change,gefitinib,inactive: -0.071
same,log2 fold change,lapatinib,inactive: -0.366
same,log2 fold change,pictilisib,inactive: 0.024
same,log2 fold change,crizotinib,inactive: -0.077
same,log2 fold change,doramapimod,inactive: -0.021
same,log2 fold change,bafetinib,inactive: 0.059
SDCCAG8 (UniProt S4R323),log2 fold change,Tubastatin A,inactive: -0.163
same,log2 fold change,[5],inactive: 0.14
same,log2 fold change,crizotinib,inactive: -0.017
same,log2 fold change,doramapimod,inactive: 0.112
SAP30 (UniProt O75446),log2 fold change,alvocidib,inactive: -0.022
same,log2 fold change,defactinib,inactive: -0.028
same,log2 fold change,[6],inactive: 0.089
same,log2 fold change,encorafenib,inactive: -0.007
same,log2 fold change,[4],inactive: 0.053
same,log2 fold change,alisertib,inactive: 0.044
same,log2 fold change,[3],inactive: 0.087
same,log2 fold change,gefitinib,inactive: -0.285
same,log2 fold change,lapatinib,inactive: -0.064
same,log2 fold change,pictilisib,inactive: -0.036
same,log2 fold change,crizotinib,inactive: 0.044
same,log2 fold change,[1],inactive: 0.042
same,log2 fold change,duvelisib,inactive: 0.004
same,log2 fold change,gandotinib,inactive: -0.036
same,log2 fold change,tozasertib,inactive: -0.056
same,log2 fold change,doramapimod,inactive: 0.013
same,log2 fold change,bafetinib,inactive: -0.073
same,log2 fold change,[2],inactive: 0.012
SAMD8 (UniProt Q96LT4),log2 fold change,Tubastatin A,inactive: 0.064
same,log2 fold change,[5],inactive: -0.043
SELENON (UniProt Q9NZV5),log2 fold change,[5],inactive: -0.034
same,log2 fold change,[6],inactive: -0.293
same,log2 fold change,duvelisib,inactive: 0.039
SAC3D1 (UniProt A6NKF1),log2 fold change,alvocidib,inactive: 0.272
same,log2 fold change,alisertib,inactive: -0.102
same,log2 fold change,gefitinib,inactive: -0.039
same,log2 fold change,pictilisib,inactive: -0.072
same,log2 fold change,crizotinib,inactive: 0.074
same,log2 fold change,[1],inactive: 0.036
same,log2 fold change,gandotinib,inactive: -0.178
same,log2 fold change,doramapimod,inactive: -0.006
same,log2 fold change,bafetinib,inactive: -0.031
same,log2 fold change,[2],inactive: -0.187
SCAND1 (UniProt P57086),log2 fold change,Tubastatin A,inactive: -0.094
same,log2 fold change,crizotinib,inactive: 0.111
same,log2 fold change,doramapimod,inactive: 0.173
SCGB1D1 (UniProt O95968),log2 fold change,[5],inactive: 0.3

# A second format for some results above:
target	measurement	setting	value
SEC22A (UniProt Q96IW7)	log2 fold change	pictilisib	inactive: -0.046
SAP30 (UniProt O75446)	log2 fold change	gefitinib	inactive: -0.285

# 4 consecutive entries already listed:
target,measurement,setting,value
SELENOK (UniProt Q9Y6D0),log2 fold change,bafetinib,inactive: -0.027
same,log2 fold change,[2],active: 0.542
SDF2 (UniProt Q99470),log2 fold change,alisertib,inactive: 0.133
same,log2 fold change,[3],inactive: 0.211

# 2 entries picked at random from those above, as already listed:
target,measurement,setting,value
SDCCAG8 (UniProt S4R323),log2 fold change,doramapimod,inactive: 0.112
SDHAF2 (UniProt Q9NX18),log2 fold change,alisertib,inactive: -0.052
